Experimental data taken from PMC6131142.
Results are given in words; binding and its absence hold for the method and conditions named. Binding calls can cover weak binding; strength is not graded here.

Chains of the proteins cited; added tags and fusions are not shown. Lines headed by an entry give the natural chain unless they say otherwise; changes in a name come on top.
UniProt O23661: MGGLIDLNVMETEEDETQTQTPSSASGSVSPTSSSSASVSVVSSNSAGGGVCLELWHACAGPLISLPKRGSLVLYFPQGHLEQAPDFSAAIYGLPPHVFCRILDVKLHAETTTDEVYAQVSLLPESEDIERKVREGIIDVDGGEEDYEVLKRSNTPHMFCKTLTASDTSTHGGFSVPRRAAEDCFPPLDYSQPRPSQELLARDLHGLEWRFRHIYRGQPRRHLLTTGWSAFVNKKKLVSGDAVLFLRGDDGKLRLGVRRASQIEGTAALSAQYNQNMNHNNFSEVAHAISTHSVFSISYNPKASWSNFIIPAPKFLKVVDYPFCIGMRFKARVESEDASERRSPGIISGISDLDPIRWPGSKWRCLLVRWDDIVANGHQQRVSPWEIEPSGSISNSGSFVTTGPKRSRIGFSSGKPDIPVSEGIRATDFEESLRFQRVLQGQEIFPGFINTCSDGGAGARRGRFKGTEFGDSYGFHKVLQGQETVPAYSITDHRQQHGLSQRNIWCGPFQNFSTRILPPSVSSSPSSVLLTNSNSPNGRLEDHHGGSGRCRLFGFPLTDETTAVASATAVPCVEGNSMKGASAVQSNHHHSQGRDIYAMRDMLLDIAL

Each substance was assayed against T1, … (IND) transcription factor of Arabidopsis thaliana (Arabidopsis thaliana) (UniProt O81313) (assay: two-hybrid; GAL4 system (pGADT7 and pGBKT7), yeast AH109, co-transformation, 28 °C, growth on selective YSD medium -W-L-H-A with IAA in the medium (different concentrations; 100 μM IAA in the error-prone screen)).
T1 sequence: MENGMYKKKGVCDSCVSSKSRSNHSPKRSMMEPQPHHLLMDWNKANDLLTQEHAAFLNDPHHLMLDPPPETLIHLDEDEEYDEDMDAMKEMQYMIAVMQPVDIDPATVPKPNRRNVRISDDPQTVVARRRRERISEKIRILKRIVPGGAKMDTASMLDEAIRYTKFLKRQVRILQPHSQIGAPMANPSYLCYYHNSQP

binding, binds:
ES_EP1 (ES domain variant from error-prone mutagenesis) (from UniProt O23661) (domain or fragment)
ES_EP3 (ES domain variant from error-prone mutagenesis) (from UniProt O23661) (domain or fragment)
ES_SP (ES domain with serine to threonine mutations in the Ser patch) (from UniProt O23661) (domain or fragment)
ES_EP2 (ES domain variant from error-prone mutagenesis) (from UniProt O23661) (domain or fragment)
